Consider six molecules from article PMC6277856.

Chains of the proteins cited; added tags and fusions are not shown. Residues count along the entry.
Latency-associated peptide (LAP) (mouse (endogenous in SuperMApo of mouse macrophages and apoptotic thymic cells)) (P04202, residues 30-278): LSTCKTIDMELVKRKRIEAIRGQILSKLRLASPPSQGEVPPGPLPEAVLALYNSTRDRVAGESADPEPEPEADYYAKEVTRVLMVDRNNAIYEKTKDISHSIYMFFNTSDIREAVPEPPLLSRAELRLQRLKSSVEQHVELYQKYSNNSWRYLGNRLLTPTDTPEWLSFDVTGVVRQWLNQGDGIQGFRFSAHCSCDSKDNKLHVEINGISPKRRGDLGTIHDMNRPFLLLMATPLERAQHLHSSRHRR
UniProt P07356: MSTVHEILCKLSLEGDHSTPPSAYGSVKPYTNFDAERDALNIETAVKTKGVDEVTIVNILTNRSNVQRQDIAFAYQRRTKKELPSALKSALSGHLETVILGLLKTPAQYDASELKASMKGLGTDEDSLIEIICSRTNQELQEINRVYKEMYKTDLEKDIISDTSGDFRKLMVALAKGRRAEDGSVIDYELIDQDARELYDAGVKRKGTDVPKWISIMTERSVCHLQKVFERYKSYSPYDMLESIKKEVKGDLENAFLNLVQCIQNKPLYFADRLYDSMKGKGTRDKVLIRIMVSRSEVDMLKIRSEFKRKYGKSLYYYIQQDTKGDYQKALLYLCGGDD
UniProt P34960, residues 110-473: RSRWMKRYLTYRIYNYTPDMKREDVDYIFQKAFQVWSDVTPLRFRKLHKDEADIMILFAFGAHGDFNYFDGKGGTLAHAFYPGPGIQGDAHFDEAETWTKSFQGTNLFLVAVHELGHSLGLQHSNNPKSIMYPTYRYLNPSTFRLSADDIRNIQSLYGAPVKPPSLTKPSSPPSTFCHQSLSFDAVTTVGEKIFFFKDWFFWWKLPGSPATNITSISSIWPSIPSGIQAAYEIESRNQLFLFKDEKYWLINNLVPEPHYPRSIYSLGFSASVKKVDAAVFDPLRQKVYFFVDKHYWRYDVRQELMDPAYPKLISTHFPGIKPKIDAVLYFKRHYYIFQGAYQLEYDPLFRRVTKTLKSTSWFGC
UniProt P35441, residues 19-1170: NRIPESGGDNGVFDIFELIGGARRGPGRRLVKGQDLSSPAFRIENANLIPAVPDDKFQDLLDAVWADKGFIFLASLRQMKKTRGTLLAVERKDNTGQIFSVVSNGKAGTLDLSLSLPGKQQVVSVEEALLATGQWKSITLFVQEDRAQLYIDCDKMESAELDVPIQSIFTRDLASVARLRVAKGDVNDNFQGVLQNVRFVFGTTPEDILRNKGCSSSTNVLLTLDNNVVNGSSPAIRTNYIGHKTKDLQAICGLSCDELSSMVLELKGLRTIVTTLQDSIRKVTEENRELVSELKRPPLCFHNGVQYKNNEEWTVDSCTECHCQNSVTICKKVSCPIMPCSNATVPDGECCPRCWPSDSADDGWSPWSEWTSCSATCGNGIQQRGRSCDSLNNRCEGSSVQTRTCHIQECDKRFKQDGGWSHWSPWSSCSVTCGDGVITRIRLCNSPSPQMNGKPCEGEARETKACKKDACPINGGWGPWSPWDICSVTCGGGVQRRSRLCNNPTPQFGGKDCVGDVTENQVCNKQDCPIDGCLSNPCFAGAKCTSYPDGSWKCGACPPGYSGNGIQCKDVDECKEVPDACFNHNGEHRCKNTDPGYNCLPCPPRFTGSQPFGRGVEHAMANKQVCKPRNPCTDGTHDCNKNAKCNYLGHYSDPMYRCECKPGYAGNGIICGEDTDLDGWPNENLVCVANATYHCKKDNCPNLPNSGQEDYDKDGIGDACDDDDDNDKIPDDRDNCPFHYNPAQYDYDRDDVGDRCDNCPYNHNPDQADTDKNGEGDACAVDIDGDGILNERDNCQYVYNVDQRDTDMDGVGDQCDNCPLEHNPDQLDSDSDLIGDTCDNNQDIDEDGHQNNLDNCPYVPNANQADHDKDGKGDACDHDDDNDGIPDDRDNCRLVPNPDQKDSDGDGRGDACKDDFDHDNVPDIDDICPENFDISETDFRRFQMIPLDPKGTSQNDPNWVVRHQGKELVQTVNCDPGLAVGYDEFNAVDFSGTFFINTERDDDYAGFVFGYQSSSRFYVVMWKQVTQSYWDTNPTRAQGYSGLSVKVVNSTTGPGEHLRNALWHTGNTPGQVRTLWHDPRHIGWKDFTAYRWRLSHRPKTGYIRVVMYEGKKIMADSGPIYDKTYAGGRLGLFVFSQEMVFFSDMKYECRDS

Results are given in words; binding and its absence hold for the method and conditions named. In cells and extracts the contact can be indirect. A yes stands for co-enrichment or nearness to the bait. Other partners may have been found.

Assay [1] has as its target Latency-associated peptide (LAP) (mouse (endogenous in SuperMApo of mouse macrophages and apoptotic thymic cells)) (UniProt P04202). In words: affinity purification with mass spectrometry; surface plasmon resonance biochips coated with anti-LAP antibody; SuperMApo injected; mass spectrometry of the factors retained at the biochip surface. For orientation: Surface plasmon resonance follows binding to a sensor surface in real time, without labels.

Assay [2] concerns the target TGF-β1 (mouse (endogenous in SuperMApo of mouse macrophages and apoptotic thymic cells)) (UniProt P04202). Put plainly: affinity purification with mass spectrometry; surface plasmon resonance biochips coated with anti-TGF-β1 antibody; SuperMApo injected; mass spectrometry of the factors retained at the biochip surface.

Take Annexin-A2 (from UniProt P07356 1-339): the binding entry in assay [1] is “binds”.
Consider “macrophage metalloelastase MMP12 (from UniProt P34960 110-473) (enzyme)”, for which the binding entry in assay [1] and in assay [2] was “binds” each time.
As for “thrombospondin-1 (Thbs1) (from UniProt P35441 19-1170)”, the binding entry in assay [1] and in assay [2] was “binds” throughout.
On to “transthyretin (Ttr) (from UniProt P07309 21-147)”, for which the binding entry in assay [1] and in assay [2] was “binds” in each case.

B1: apolipoprotein E (ApoE) (protein, UniProt P08226 19-311)
chain: EGEPEVTDQLEWQSNQPWEQALNRFWDYLRWVQTLSDQVQEELQSSQVTQELTALMEDTMTEVKAYKKELEEQLGPVAEETRARLGKEVQAAQARLGADMEDLRNRLGQYRNEVHTMLGQSTEEIRARLSTHLRKMRKRLMRDAEDLQKRLAVYKAGAREGAERGVSAIRERLGPLVEQGRQRTANLGAGAAQPLRDRAQAFGDRIRGRLEEVGNQARDRLEEVREHMEEVRSKMEEQTQQIRLQAEIFQARLKGWFEPIVEDMHRQWANLMEKIQASVATNPIITPVAQENQ
Regarding B1, the binding result in assay [1] and in assay [2] was “binds” throughout.

B2: lipoprotein lipase (enzyme, UniProt P11152 28-474)
chain: ADAGRDFSDIESKFALRTPEDTAEDTCHLIPGLADSVSNCHFNHSSKTFVVIHGWTVTGMYESWVPKLVAALYKREPDSNVIVVDWLYRAQQHYPVSAGYTKLVGNDVARFINWMEEEFNYPLDNVHLLGYSLGAHAAGVAGSLTNKKVNRITGLDPAGPNFEYAEAPSRLSPDDADFVDVLHTFTRGSPGRSIGIQKPVGHVDIYPNGGTFQPGCNIGEAIRVIAERGLGDVDQLVKCSHERSIHLFIDSLLNEENPSKAYRCNSKEAFEKGLCLSCRKNRCNNLGYEINKVRAKRSSKMYLKTRSQMPYKVFHYQVKIHFSGTEDGKQHNQAFEISLYGTVAESENIPFTLPEVSTNKTYSFLIYTEVDIGELLMMKLKWISDSYFSWPDWWSSPSFVIERIRVKAGETQKKVIFCAREKVSHLQKGKDSAVFVKCHDKSLKKSG
In the case of B2, the binding entry in assay [1] is “binds”.
